Reference: US9616047B2, “Inhibitors of beta-catenin in treatment of colorectal cancer” (Regents of the University of Minnesota, priority 2014, dated 2017)
Some entries share one result that the patent states for a list of compounds.

Experiments:
[1] = test system: β-catenin/Tcf-4 luciferase activity; assay: β-catenin/Tcf-4 luciferase reporter assay (TOP-flash/FOP-flash) in HCT116; assay type: cell-based
From the text: (§1) FIGS. 1A-C. HI-B1, HI-B5 and HI-B9 inhibit beta-catenin/Tcf-4 luciferase activity in colon cancer cell lines. (A) Chemical structures of three compounds. (B-C) Effects of HI-B1, HI-B5 and HI-B9 on the β-catenin/Tcf-4 luciferase activity in HCT116 (B) and HT29 (C) colon cancer cell lines. […] Colon cancer cells were co-transfected with reporter genes harboring the β-catenin/Tcf binding site (TOP-flash) or a mutant β-catenin/Tcf binding site (FOP-flash), respectively, and the Renilla gene. The luciferase activity was normalized to Renilla activity.
(§2) Transient transfection was performed using jetPEI and assays to detect firefly luciferase and Renilla activities according to the manufacturer's manual (Promega). Briefly, cells were seeded onto 10-cm plates and co-transfected with 400 ng of the Renilla luciferase internal control gene and 4 μg of the TOP-flash luciferase reporter construct containing three tandem Tcf consensus binding sites upstream of luciferase cDNA, or the FOPflash luciferase reporter construct, a plasmid with mutated Tcf binding sites. After 16 h of transfection, cells were trypsinized and seeded onto 48-well plates, and cells were treated with respective chemicals for 24 h. Luciferase and Renilla activities were measured using their substrates.

[2] = test system: β-catenin/Tcf-4 luciferase activity; assay: β-catenin/Tcf-4 luciferase reporter assay (TOP-flash/FOP-flash) in HT29; assay type: cell-based
From the text: as §1, §2

CC1=C(/C=C/C(=O)/C=C2/C(=O)Nc3ccc(F)cc32)C(C)(C)CCC1 [HI-B5]
concentration at which significant decreases in β-catenin/Tcf-4 luciferase activity were seen [1]: 10 to 20 µM
concentration at which significant decreases in β-catenin/Tcf-4 luciferase activity were seen [2]: 10 to 20 µM
